Data as given in PubChem BioAssay AID1259279 (Sanger Institute, 2017).
Here is a random part of 794 deposited reagents. 11 of all reagents (1.4%) were called active. 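Calls reflect knock-down alone in the vehicle arm, not drug synergy.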 Viability is capped at 1. Reagent sequences are not shown. Not given: the amount of reagent, the time to read-out.

Test: 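Kinase-wide knock-down seeking synergy with BYL719, cetuximab or trametinib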 (primary screen)
System: LS180 human colorectal cancer cells
Knock-down reagent: siRNA pool against human genes
Conditions: anchor drug BYL719 at 1 µM, cetuximab at 5 µg/ml or trametinib at 10 nM, or DMSO vehicle only
Measurement: 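Viability as a fraction of non-targeting control and as a replicate-averaged robust z-score, with separate synergy scores for BYL719, cetuximab and trametinib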
Reading the numbers: viability z-score, no drug: higher = more viable cells after knock-down; viability, no drug: higher = more viable cells; synergy score with BYL719 and synergy score with cetuximab and synergy score with trametinib: higher = stronger synthetic lethal synergy with drug
Hit rule: 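a knock-down is called active, meaning essential, if its viability z-score in vehicle alone falls below -3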
Calls: active = essential (knock-down alone cuts viability); inactive = no change without drug

no.	gene symbol	viability z-score, no drug	viability, no drug (fraction)	synergy score with BYL719	synergy score with cetuximab	synergy score with trametinib	call
1	SRP72	-1.75	0.715	-0.225	-0.103	-0.147	inactive
2	EIF2AK1	0.746	0.988	-0.085	-0.0306	-0.151	inactive
3	NEK2	-0.386	0.864	0.00408	-0.123	0.00065	inactive
4	MYO3B	0.0486	0.912	-0.0483	0.064	-0.0131	inactive
5	GCK	-1.47	0.746	-0.0899	-0.215	-0.0769	inactive
6	GSK3A	0.113	0.919	-0.0157	-0.0822	0.177	inactive
7	CDC42BPB	0.86	1	-0.147	-0.124	-0.00583	inactive
8	RNASEL	0.105	0.918	-0.0914	-0.208	0.0229	inactive
9	PDIK1L	-0.471	0.855	-0.103	-0.129	0.0101	inactive
10	NTRK1	0.103	0.917	0.0813	0.125	0.0316	inactive
11	MINK1	0.372	0.947	0.0465	0.0334	0.181	inactive
12	STK32C	0.614	0.973	-0.0706	-0.064	-0.125	inactive
13	NEK4	-0.12	0.893	-0.105	-0.042	0.045	inactive
14	SRGAP3	0.86	1	-0.15	-0.0881	-0.1	inactive
15	NEK9	-0.366	0.866	-0.168	-0.2	-0.0147	inactive
16	PRKD1	-0.275	0.876	-0.0461	-0.202	-0.0285	inactive
17	PAK5	0.074	0.914	0.014	-0.00414	0.0882	inactive
18	CTCF	-3.01	0.578	-0.145	-0.136	-0.175	active
19	TNK2	0.86	1	-0.151	-0.162	-0.126	inactive
20	CIB2	-1.23	0.772	-0.155	-0.0554	-0.158	inactive
21	LATS1	-0.307	0.873	-0.0436	-0.145	-0.0311	inactive
22	KDR	-0.409	0.862	-0.0599	-0.174	-0.0785	inactive
23	MECOM	0.86	1	-0.0806	-0.0194	-0.059	inactive
24	PIM1	0.86	1	0.109	0.104	0.0762	inactive
25	BMPR1A	-0.64	0.836	-0.115	-0.145	0.0105	inactive
26	PRKAA2	-0.0357	0.902	-0.0105	-0.123	-0.0124	inactive
27	ALPK3	-0.686	0.831	-0.126	-0.145	-0.151	inactive
28	DCK	-0.853	0.813	-0.0964	-0.0908	-0.102	inactive
29	IKBKE	-1.71	0.72	-0.11	-0.139	-0.136	inactive
30	FN1	0.707	0.983	-0.0537	-0.0984	-0.0327	inactive
31	PNCK	0.86	1	0.00919	-0.0178	0.13	inactive
32	CDK11B	0.86	1	-0.0483	-0.0413	-0.0502	inactive
33	LMTK1	0.387	0.948	-0.0765	0.0572	0.195	inactive
34	IPPK	0.86	1	-0.135	-0.062	-0.0542	inactive
